In patent publication US9283236B2 (HUMAN MATRIX SCIENCES, LLC, priority 2008, dated 2016):
Entries after “also recorded” stand apart in the source; their conditions may differ. At least one structure is not confirmed: it was looked up by name or label, or the drawing left a doubt.

Assays:
[1] = tested on: human fetal cardiac fibroblasts; assay: One-step RT-PCR of elastin mRNA in cardiac fibroblast cultures; type: cell-based
[2] = tested on: human fetal cardiac fibroblasts; assay: Quantitative assay of [3H]valine-labeled insoluble elastin; type: cell-based; details: agent added 1 hour before aldosterone (50 nM or 1 to 50 nmol/L), 72 hours

SMILES	effect on aldosterone-induced increase in elastin mRNA levels ([1]; agent added 1 hour (CT04 2 hours) before aldosterone, 24 hours)	effect on IGF-I-induced increase in elastin mRNA levels ([1]; pretreatment or siRNA transfection before 100 ng/ml IGF-I)	effect on aldosterone-induced increase in insoluble elastin production [2]
COC[C@H]1OC(=O)c2coc3c2[C@@]1(C)C1=C(C3=O)[C@@H]2CCC(=O)[C@@]2(C)C[C@H]1OC(C)=O [wortmannin, Wortmannin]	abolished the elastogenic effects of both stimulators	abolished the elastogenic effects of both stimulators	–
Oc1c2ccccc2c2c3c(cccc13)N=N2 [SP600125]	–	–	did not diminish the elastogenic effect of aldosterone; also recorded: showed no effect on the deposition of insoluble elastin
